Test results: the supplement of paper PMC7877785
± gives the uncertainty stated by the source. The uncertainty is large for many entries.

Assay: self-splicing fitness, log relative to wild type (ln ratio); higher = more splicing; Tetrahymena group I intron in knt gene, E. coli kanamycin selection, DiMSum; sequences stand for … in CUCUCU…GGAGGGAAAAGUUAUCAGGCAUGCACCUGGUAGCUAGUCUUUAAACCAAUAGAUUGCAUCGGUUUAAAAGGCAAGACCGUCAAAUUGCGGGAAAGGGGUCAACAGCCGUUCAGUACCAAGUCUCAGGGGAAACUUUGAGAUGGCCUUGCAAAGGGUAUGGUAAUAAGCUGACGGACAUGGUCCUAACCACGCAGCCAAGUCCUAAGUCAACAGAUCUUCUGUUGAUAUGGAUGCAGUUCACAGACUAAAUGUCGGUCGGGGAAGAUGUAUUCUUCUCAUAAGAUAUAGUCGGACCUCUCCUUAAUGGGAGCUAGCGGAUGAAGUGAUGCAACACUGGAGCCGCUGGGAACUAAUUUGUAUGCGAAAGUAUAUUGAUUAGUUUUGGAGUACUCGUGGUCG
In short: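 Pooled colonies went to amplicon sequencing on an Illumina HiSeq 2500 after six replicate transformations. The plates were LB agar with 100 μg/mL carbenicillin, 50 μM IPTG and 0.2% rhamnose, with or without 25 μg/mL kanamycin, incubated overnight at 37°C or 30°C. The E. coli BL21(DE3) library had all eight P1ex-region intron nucleotides randomised, the intron placed in the knt kanamycin-resistance gene on pET-22b(+). DiMSum fitness is the error-weighted combination of replicate fold changes, kanamycin against none, normalised to wild type.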

Sequence | self-splicing fitness (ln) (30 °C) | self-splicing fitness (ln) (37 °C)
AAAGAGCAAUAUUACGACGC | -1.94 ± 0.82 | -1.05 ± 0.51
GGGGAGCAAUAUUACGGAAG | – | -1.94 ± 0.79
GCGGAGCAAUAUUACGGGGG | -1.85 ± 0.59 | -2.68 ± 0.53
AUUGAGCAAUAUUACGGUCC | -4.32 ± 1 | –
GAGGAGCAAUAUUACGCAUU | -2.99 ± 0.43 | -0.645 ± 0.33
ACGGAGCAAUAUUACGAAUA | -2.17 ± 0.82 | -3.76 ± 0.59
GCGCAGCAAUAUUACGCGCG | – | -2.82 ± 0.53
AUGCAGCAAUAUUACGCGGC | – | -1.77 ± 0.58
UCAGAGCAAUAUUACGCGCU | -4.17 ± 0.72 | –
ACGGAGCAAUAUUACGCCUG | -3.41 ± 0.2 | -1.52 ± 0.19
GGUGAGCAAUAUUACGCCUG | -5.46 ± 1 | –
CUGGAGCAAUAUUACGGCGC | -3.47 ± 0.76 | –
CUGCAGCAAUAUUACGAUCC | -3.06 ± 1.1 | -2.06 ± 0.51
GACGAGCAAUAUUACGGCCA | -2.56 ± 0.64 | –
AGGCAGCAAUAUUACGCCUU | -5.78 ± 0.58 | –
GGAAAGCAAUAUUACGUCGG | – | -2.61 ± 0.62
UGUCAGCAAUAUUACGCCGA | -2.04 ± 0.61 | -2.43 ± 1.1
GUGGAGCAAUAUUACGAUCA | -2.19 ± 0.49 | -0.101 ± 0.2
CACUAGCAAUAUUACGAGCA | -3.42 ± 0.18 | -0.879 ± 0.11
AUUGAGCAAUAUUACGCGGU | – | -3.76 ± 0.59
AUAGAGCAAUAUUACGGACG | -2.69 ± 0.22 | -0.981 ± 0.19
CCGUAGCAAUAUUACGGACC | – | -2.23 ± 1.1
AUCUAGCAAUAUUACGCCGG | -3.28 ± 0.53 | –
CGGAAGCAAUAUUACGCUUG | -4.93 ± 0.72 | -2.42 ± 0.27
UGCUAGCAAUAUUACGGAUC | -4.47 ± 0.72 | –

Taken from the results shown for reference:
Sequence | self-splicing fitness (ln) (30 °C) | self-splicing fitness (ln) (37 °C)
GGAAAGCAAUAUUACGUCGG | – | -2.61 ± 0.62
UGUCAGCAAUAUUACGCCGA | -2.04 ± 0.61 | -2.43 ± 1.1

Further results follow:

Sequence | self-splicing fitness (ln) (30 °C) | self-splicing fitness (ln) (37 °C)
UAAGAGCAAUAUUACGGGUC | -6.01 ± 1 | –
CAGGAGCAAUAUUACGCAAA | – | -2.63 ± 1.1
CGGGAGCAAUAUUACGAUAC | -2.79 ± 0.8 | –
GGGAAGCAAUAUUACGCUCA | -0.366 ± 0.67 | –
GGAAAGCAAUAUUACGCCUU | -1.07 ± 0.29 | -1.29 ± 0.38
UGAUAGCAAUAUUACGAAAC | – | -1.78 ± 1.2
AUUGAGCAAUAUUACGAUGC | – | -2.43 ± 0.55
GUCUAGCAAUAUUACGGGAU | -4.48 ± 0.42 | -3.39 ± 0.42
UCGGAGCAAUAUUACGGGGC | -4.13 ± 0.74 | -2.08 ± 0.79
GGAGAGCAAUAUUACGCCAC | 0.0882 ± 0.84 | –
AUGAAGCAAUAUUACGCCUG | -0.59 ± 0.092 | -0.209 ± 0.11
CAGAAGCAAUAUUACGCCUC | -2.65 ± 0.65 | –
CCAUAGCAAUAUUACGACCC | -4.32 ± 1 | –
GAGGAGCAAUAUUACGGAGG | -3.98 ± 0.53 | –
UGGAAGCAAUAUUACGAAAC | -3.53 ± 0.78 | –
AGUAAGCAAUAUUACGACUG | -1.45 ± 0.12 | 0.23 ± 0.15
AUCUAGCAAUAUUACGAGAA | -1.52 ± 1.2 | -1.35 ± 0.75
AAAGAGCAAUAUUACGAAUA | – | -1.24 ± 0.51
GGGGAGCAAUAUUACGUCUG | -2.55 ± 0.37 | -1.24 ± 0.24
UACGAGCAAUAUUACGGGGC | -4.15 ± 0.51 | -3.34 ± 0.3
GCGGAGCAAUAUUACGACAC | – | -1.39 ± 0.55
GCGGAGCAAUAUUACGUUUC | – | -2.88 ± 0.54
GGGCAGCAAUAUUACGUCCC | – | -2.39 ± 1.1
UCGUAGCAAUAUUACGCUUC | – | -1.79 ± 0.57
